Experimental data published in PubChem BioAssay (NCATS).
Inconclusive means that the source gave no clear call. Such entries were picked first, then a sample of the others. Where a call stands in place of a potency, no number is given. For part of these data: Potencies beside an inconclusive call are fits to weak or partial responses and may not hold up. The source made the active and inactive calls. The call rests on the fitted dose curve; in most records, active means well fitted curve in the direction sought with a large enough effect; inconclusive means small, poorly fitted or top-dose-only effect, or another doubt; inactive means no such curve, though single readings can be large; an effect the other way counts as inactive or inconclusive.

Legend:
[1] = Quantitative highthroughput screen to assess conditional lethalithy of P12 Ichikawa cells grown in RPMI1640 with untreated serum (RPMI+s) (AID 1963881); details: Potency: viability; further: nearly all actives have a fitted effect of over 35% in size
How it was run: (§1)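 Each medium arm—HPLM with 10% dialyzed FBS, or RPMI1640 with 5 mM glucose and 10% untreated or dialyzed FBS—was screened against an 11-point, 3-fold compound titration for 48 h at 37 °C, with CellTiter-Glo luminescence as endpoint.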

[2] = Quantitative highthroughput screen to assess conditional lethalithy of SEM cells grown in Human Plasma-Like Medium with dialyzed fetal bovine serum (HPLM+ds) (AID 1963882); further: nearly all actives have a fitted effect of over 35% in size; further: potency means the concentration at half of the fitted maximal effect
How it was run: as §1

[3] = Quantitative highthroughput screen to assess conditional lethalithy of P12 Ichikawa cells grown in Human Plasma-Like Medium with dialyzed fetal bovine serum (HPLM+ds) (AID 1963879); details: Potency: viability; further: nearly all actives have a fitted effect of over 35% in size
How it was run: as §1

[4] = Quantitative highthroughput screen to assess conditional lethalithy of SEM cells grown in RPMI1640 with unreated serum (RPMI+s) (AID 1963883); details: SEM B-ALL cells, CellTiter-Glo viability, 48 h; viability: at 45.8 µM (top of the series); further: nearly all actives have a fitted effect of over 35% in size; further: potency means the concentration at half of the fitted maximal effect
How it was run: as §1

[5] = Quantitative highthroughput screen to assess conditional lethalithy of SEM cells grown in RPMI1640 with dialyzed fetal bovine serum (RPMI+ds) (AID 1963884); details: SEM B-ALL cells, RPMI+dialyzed FBS, CellTiter-Glo viability, 48 h; viability: at 45.8 µM (top of the series); further: nearly all actives have a fitted effect of over 35% in size; further: potency means the concentration at half of the fitted maximal effect
How it was run: as §1

[6] = Quantitative highthroughput screen to assess conditional lethalithy of P12 Ichikawa cells grown in RPMI1640 with dialyzed fetal bovine serum (RPMI+ds) (AID 1963880); details: Potency: P12-Ichikawa viability; further: nearly all actives have a fitted effect of over 35% in size; further: potency means the concentration at half of the fitted maximal effect
How it was run: as §1

[7] = Cellular viability qHTS for adrenocortical cancer (ACC) cell line SW-13 (AID 1963989); details: SW-13 ACC cells viability, CellTiter-Glo, 48 h; activity (max response): active compounds read low; further: nearly all actives have a fitted effect of over 65% in size; further: potency means the concentration at half of the fitted maximal effect;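 on activity (max response): cells grown in serum-free medium with ITS supplement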
How it was run: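 Compound titrations (up to 46 uM final, in DMSO) were applied to SW-13 cells for 48 h at 37C/5% CO2. Reading used CellTiter-Glo after 20 min at room temperature; fitted curves yielded IC50 and efficacy.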

C[C@@H]1[C@H](O)[C@@H](C)C=CC=CC=CC=CC=CC=CC=C[C@H](O[C@@H]2O[C@H](C)[C@H](O)[C@H](N)[C@@H]2O)C[C@@H]2O[C@](O)(C[C@@H](O)C[C@@H](O)[C@H](O)CC[C@@H](O)C[C@@H](O)CC(=O)O[C@H]1C)C[C@H](O)[C@@H]2C(=O)O
Potency [1]: inactive
Potency [2]: inactive

C=C1CCC2[C@](C)(CO)C(O)CC[C@]2(C)C1CC=C1C(=O)OCC1O (stereo partly drawn)
Potency [3]: inactive
Potency [4]: active: 0.034 µM
Potency [5]: inactive

Nc1ccn(C[C@@H](CO)OCP(=O)(O)O)c(=O)n1
Potency [3]: inactive
Potency [6]: inactive
Potency [5]: inactive

CC1(C)SCCN(S(=O)(=O)c2ccc(OCC#CCO)cc2)[C@@H]1C(=O)NO
Potency [6]: inactive
Potency [1]: inactive
Potency [2]: inactive
Potency [5]: inactive

O=C(O)C=Cc1ccc(Cn2ccnc2)cc1
Potency [1]: inactive

CCOC(=O)C(C)(C)Oc1ccc(Cl)cc1
Potency [6]: inactive
Potency [2]: inactive
Potency [4]: inactive
Potency [5]: inactive

CN1[C@@H]2CCC[C@@H]1CC(NC(=O)c1nn(C)c3ccccc13)C2 (stereo partly drawn)
Potency [6]: inactive
Potency [5]: inactive

CCOc1cc(C=C2C(=O)N(c3ccccc3)N=C2C)cc(Cl)c1OCC(=O)OC
Potency [1]: inactive
Potency [2]: inconclusive: 29.6 µM [cytotoxic, single point]
Potency [4]: inconclusive: 11.8 µM [cytotoxic, partial curve]

CC1(C)CC(O)CC(C)(C)N1[O]
Potency [6]: inactive
Potency [1]: inactive
Potency [5]: inactive

C[C@H](Cn1cnc2c(N)ncnc21)OCP(=O)(O)O
Potency [6]: inactive
Potency [4]: inactive
Potency [5]: inactive

Cc1cc(OCCCc2c(C(=O)O)n(Cc3cccnc3)c3c(-c4c(COc5ccc(N6CCN([S+](C)(=O)[O-])CC6)cc5)nn(C)c4C)cccc23)cc(C)c1Cl
Potency [6]: inactive
Potency [2]: inactive
Potency [4]: inconclusive: 18.7 µM [cytotoxic, single point]

COc1ccc2c3c1OC1C[C@@H](O)C=C[C@@]31CCN(C)C2 (stereo partly drawn)
Potency [6]: inactive
Potency [1]: inactive
Potency [2]: inactive
Potency [5]: inactive

C[C@H](NC(=O)C(C#N)=Cc1cccc(Br)n1)c1ccccc1
Potency [6]: active: 2.35 µM
Potency [2]: active: 1.32 µM
Potency [4]: active: 0.935 µM

CCOC(=O)C1=C(N)Oc2ccc(Br)cc2C1C(C#N)C(=O)OCC (stereo not drawn)
Potency [1]: inactive
Potency [2]: inactive
Potency [4]: inconclusive: 23.5 µM [cytotoxic, single point]
Potency [5]: inconclusive: 20.9 µM [cytotoxic, single point]

O=C(O)C1=CO[C@@H](O[C@@H]2O[C@H](CO)[C@H](O)[C@H](O)[C@H]2O)[C@@H]2C(CO)=CC[C@H]12
Potency [1]: inactive
Potency [4]: inactive
Potency [5]: inactive

CC(=O)N1c2ccc(-c3ccc(C(=O)O)cc3)cc2[C@H](Nc2ccc(Cl)cc2)C[C@@H]1C
Potency [7]: inconclusive: 11.2 µM [cytotoxic, partial curve]

COc1cc(C)c(C=CC(C)=CC=CC(C)=CC(=O)O)c(C)c1C
Potency [1]: inactive
Potency [4]: inconclusive: 0.372 µM [cytotoxic, full curve, poor fit]

CN(CC=CC#CC(C)(C)C)Cc1cccc2ccccc12
Potency [4]: inactive
Potency [5]: inactive

C[C@]12CC[C@H](O)CC1=CCC1C2CC[C@]2(C)C(n3cnc4ccccc43)=CCC12 (stereo partly drawn)
Potency [1]: inactive
Potency [4]: inactive
Potency [5]: inactive

CCC[C@H](NC(=O)/C(C#N)=C/c1cccc(Br)n1)c1ccccc1
Potency [7]: inconclusive: 35.5 µM [cytotoxic, single point]

CN(C)/N=N/c1nc[nH]c1C(N)=O
activity (max response) [7]: inactive: 10.5%

COc1cc(C(=S)N2CCOCC2)ccc1O
activity (max response) [7]: inactive: -19.3%

C[C@]12C=CC(=O)N[C@@H]1CC[C@H]1[C@H]3CC[C@@H](C(=O)Nc4cc(C(F)(F)F)ccc4C(F)(F)F)[C@@]3(C)CC[C@@H]12
Potency [1]: inactive
Potency [4]: inactive

CN(C)CCC=C1c2ccccc2COc2ccc(CC(=O)O)cc21
Potency [4]: inactive
Potency [5]: inactive

Cc1cccc(/C=N/Nc2cc(N3CCOCC3)nc(OCCc3ccccn3)n2)c1
Potency [7]: inconclusive: 10 µM [cytotoxic, partial curve, poor fit]

CN(C)Cc1ccc(S(=O)(=O)n2ccc(/C=C/C(=O)NO)c2)cc1
Potency [7]: active: 12.6 µM

Cc1cc2c(F)c(Oc3ncnn4cc(OCC(C)OC(=O)C(C)N)c(C)c34)ccc2[nH]1 (stereo not drawn)
Potency [7]: inconclusive: 25.1 µM [cytotoxic, partial curve]
